Patent US9643985B2, “PCL compounds, compositions, and methods of use thereof” (The Board Of Trustees Of The University Of Illinois, priority 2013, dated 2017)

Experiments:
[1] = Limit of detection/quantification, luciferase bioluminescence, peroxynitrite
[2] = Limit of detection/quantification, luciferase bioluminescence, H2O2

SMILES: O=C(O)[C@H]1CSC(c2nc3ccc(OCc4ccc(B(O)O)cc4)cc3s2)=N1 [PCL-1]
- L.O.D. (limit of detection) ([1]; peroxynitrite (SIN-1)): 47 nM
- L.O.Q. (limit of quantification) ([1]; peroxynitrite (SIN-1)): 157 nM
- L.O.Q. (limit of quantification) ([1]; peroxynitrite (bolus)): 56 nM
- L.O.D. (limit of detection) ([1]; peroxynitrite (bolus), bioluminescent output, 37° C., 30 minutes): 16 nM
- L.O.Q. (limit of quantification) [2]: 763 nM
- L.O.D. (limit of detection) ([2]; bioluminescent output, 37° C., 30 minutes): 231 nM
